Here are results for one molecule from article PMC3260166, “HspB2/Myotonic Dystrophy Protein Kinase Binding Protein (MKBP) as a Novel Molecular Chaperone: Structural and Functional Aspects” (PLoS ONE, 2012).

These are yes or no findings as the source states them, for the method shown. Some results given as binding are weak or reduced against the parent protein; the word gives no strength.

The assay addresses T1, citrate synthase (UniProt P00889).
T1 sequence: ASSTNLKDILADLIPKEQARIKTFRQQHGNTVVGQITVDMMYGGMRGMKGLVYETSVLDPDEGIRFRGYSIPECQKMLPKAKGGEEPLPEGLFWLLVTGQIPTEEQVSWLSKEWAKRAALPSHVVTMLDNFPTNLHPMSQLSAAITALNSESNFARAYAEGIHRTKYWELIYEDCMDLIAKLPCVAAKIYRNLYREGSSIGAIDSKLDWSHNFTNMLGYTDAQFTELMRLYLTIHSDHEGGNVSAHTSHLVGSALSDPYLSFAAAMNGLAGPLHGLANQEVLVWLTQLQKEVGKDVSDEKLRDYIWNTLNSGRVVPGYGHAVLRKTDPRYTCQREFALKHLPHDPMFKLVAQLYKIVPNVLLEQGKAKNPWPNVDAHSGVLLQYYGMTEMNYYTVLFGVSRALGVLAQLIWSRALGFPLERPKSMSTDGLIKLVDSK
As to the kind of experiment: co-sedimentation; citrate synthase (25 µg/ml) heated at 43°C in 40 mM HEPES-KOH pH 7.5 with HspB2 at various w/w ratios; centrifuged at the end of the chaperone assay, soluble and precipitate fractions on SDS-PAGE; both purified.

B1: human HspB2 / Myotonic Dystrophy Protein Kinase Binding Protein (MKBP) (natural protein, UniProt Q16082 1-182, looked up)
chain: MSGRSVPHAHPATAEYEFANPSRLGEQRFGEGLLPEEILTPTLYHGYYVRPRAAPAGEGSRAGASELRLSEGKFQAFLDVSHFTPDEVTVRTVDNLLEVSARHPQRLDRHGFVSREFCRTYVLPADVDPWRVRAALSHDGILNLEAPRGGRHLDTEVNEVYISLLPAPPDPEEEEEAAIVEP
notes: HspB2 (MKBP), human; The reverse primer carries the stop codon (TCA), so the C-terminal His tag of pET21a is probably not translated; also called MKBP/HspB2; source: E. coli BL21 DE3, purified (20% ammonium sulfate precipitation, Phenyl Sepharose)
Regarding B1, the binding entry is listed as “binds”.
